Experimental data: article PMC10831263
No constants are given. Whether binding was seen depends on the method and setting. Binding seen in cells or lysates may run through a third protein. Some results given as binding are weak or reduced against the parent protein; the word gives no strength.

By UniProt entry, the sequences of proteins in these tests, tags left out. Where a name states a change or a piece, a line headed by the entry shows the natural chain unless it says otherwise. Chains listed by the source or under a name are the forms on record and can include a tag or linker. Residues count along the entry.
UniProt Q13772: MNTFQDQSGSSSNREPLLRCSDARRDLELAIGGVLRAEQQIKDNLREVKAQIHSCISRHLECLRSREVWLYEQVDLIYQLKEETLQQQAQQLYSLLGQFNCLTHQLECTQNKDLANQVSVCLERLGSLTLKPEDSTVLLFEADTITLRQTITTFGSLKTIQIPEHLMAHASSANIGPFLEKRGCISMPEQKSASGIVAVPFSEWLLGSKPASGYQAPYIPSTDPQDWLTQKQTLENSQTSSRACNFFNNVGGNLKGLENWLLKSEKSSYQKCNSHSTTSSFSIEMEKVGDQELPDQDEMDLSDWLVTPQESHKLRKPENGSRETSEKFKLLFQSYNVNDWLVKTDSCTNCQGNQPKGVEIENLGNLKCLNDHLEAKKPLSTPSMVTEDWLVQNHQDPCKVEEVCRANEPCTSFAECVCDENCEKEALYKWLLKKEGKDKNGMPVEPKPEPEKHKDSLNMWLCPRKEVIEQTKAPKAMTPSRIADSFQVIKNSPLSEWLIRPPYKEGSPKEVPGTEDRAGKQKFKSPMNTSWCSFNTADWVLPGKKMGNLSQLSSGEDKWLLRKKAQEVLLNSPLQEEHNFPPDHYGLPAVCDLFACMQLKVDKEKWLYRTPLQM
HA-tagged full-length NCOA4 mutant 4C > A (Q13772, form named): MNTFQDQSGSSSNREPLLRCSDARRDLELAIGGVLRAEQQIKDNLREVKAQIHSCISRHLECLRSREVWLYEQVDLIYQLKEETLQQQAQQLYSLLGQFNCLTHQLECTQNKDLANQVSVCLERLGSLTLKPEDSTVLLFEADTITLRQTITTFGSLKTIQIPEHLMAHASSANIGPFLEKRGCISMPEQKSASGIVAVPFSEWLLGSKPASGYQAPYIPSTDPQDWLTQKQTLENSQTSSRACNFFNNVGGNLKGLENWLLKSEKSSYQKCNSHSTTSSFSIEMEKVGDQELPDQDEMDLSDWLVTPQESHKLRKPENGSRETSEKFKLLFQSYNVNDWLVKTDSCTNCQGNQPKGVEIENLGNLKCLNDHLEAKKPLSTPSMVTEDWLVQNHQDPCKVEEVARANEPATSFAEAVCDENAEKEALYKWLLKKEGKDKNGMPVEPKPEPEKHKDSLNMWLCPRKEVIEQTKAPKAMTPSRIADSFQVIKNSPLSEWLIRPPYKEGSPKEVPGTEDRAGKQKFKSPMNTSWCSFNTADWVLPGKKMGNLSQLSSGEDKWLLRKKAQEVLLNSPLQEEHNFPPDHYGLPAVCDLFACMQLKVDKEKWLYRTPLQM
UniProt O95714, residues 2540-2700: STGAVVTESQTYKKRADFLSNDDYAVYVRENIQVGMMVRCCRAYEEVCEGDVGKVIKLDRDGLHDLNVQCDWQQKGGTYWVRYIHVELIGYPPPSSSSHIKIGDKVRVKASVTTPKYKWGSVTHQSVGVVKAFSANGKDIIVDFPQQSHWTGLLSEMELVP

Legend:
[1] = target: HA-tagged full-length NCOA4 mutant 4C > A (human) (UniProt Q13772); experiment: co-IP; HEK293 cells cotransfected with HA-tagged NCOA4 (WT or mutants) and myc-tagged HERC2 (2540–2700th), lysed 24 h after transfection (50 mM Tris-Cl pH 7.5, 150 mM NaCl, 0.1% NP-40); IP with anti-HA magnetic beads 4 h at 4 °C, blot for HA and myc; untreated or treated with DFO (100 μM) or FAC (200 μM) for 6 h
[2] = target: HA-tagged full-length NCOA4 (WT) (human) (UniProt Q13772); experiment: as above

myc-tagged truncated HERC2 (amino acids 2540–2700th) (from UniProt O95714 2540-2700) (domain or fragment)
binding [1]: no binding | binding [2]: binds
